Reference: PMC6787490
These are yes or no findings as the source states them, for the method shown. In cells and extracts the contact can be indirect.

Target: T1, Nuclear cap-binding protein 2 (human (endogenous in H1299)) (UniProt P52298)
T1 sequence: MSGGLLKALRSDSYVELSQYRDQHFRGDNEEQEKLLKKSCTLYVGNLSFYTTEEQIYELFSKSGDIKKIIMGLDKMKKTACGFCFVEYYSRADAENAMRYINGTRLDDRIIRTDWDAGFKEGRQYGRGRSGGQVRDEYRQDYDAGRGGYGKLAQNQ
Test: co-IP; H1299 cells lysed in RIP lysis buffer (RBP immunoprecipitation kit, EMD Millipore); lysates immunoprecipitated with antibodies against NCBP1, NCBP2 or NCBP3 (Abcam) and protein A/G magnetic beads overnight at 4°C; precipitates immunoblotted for NCBP1, NCBP2 and NCBP3

B1: Nuclear cap-binding protein 3 (protein, UniProt Q53F19 1-620)
chain: MAAVRGLRVSVKAEAPAGPALGLPSPEAESGVDRGEPEPMEVEEGELEIVPVRRSLKELIPDTSRRYENKAGSFITGIDVTSKEAIEKKEQRAKRFHFRSEVNLAQRNVALDRDMMKKAIPKVRLETIYICGVDEMSTQDVFSYFKEYPPAHIEWLDDTSCNVVWLDEMTATRALINMSSLPAQDKIRSRDASEDKSAEKRKKDKQEDSSDDDEAEEGEVEDENSSDVELDTLSQVEEESLLRNDLRPANKLAKGNRLFMRFATKDDKKELGAARRSQYYMKYGNPNYGGMKGILSNSWKRRYHSRRIQRDVIKKRALIGDDVGLTSYKHRHSGLVNVPEEPIEEEEEEEEEEEEEEEEDQDMDADDRVVVEYHEELPALKQPRERSASRRSSASSSDSDEMDYDLELKMISTPSPKKSMKMTMYADEVESQLKNIRNSMRADSVSSSNIKNRIGNKLPPEKFADVRHLLDEKRQHSRPRPPVSSTKSDIRQRLGKRPHSPEKAFSSNPVVRREPSSDVHSRLGVPRQDSKGLYADTREKKSGNLWTRLGSAPKTKEKNTKKVDHRAPGAEEDDSELQRAWGALIKEKEQSRQKKSRLDNLPSLQIEVSRESSSGSEAES
binding: no binding
